PubChem BioAssay AID2685 (National Center for Advancing Translational Sciences (NCATS), 2010)
The list shows a part of the results. Shown are side measurements of this screen, not its main read-out; they come without a call. The list favours compounds with an active or inconclusive main result. Words in brackets tell the shape of the fitted curve; partial curves, single points and poor fits give uncertain potencies.

Assay: qHTS Assay for Lipid Storage Modulators in Drosophila S3 Cells;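 for cell number change: cells counted by Cell Tracker Red CMTPX staining in the red channel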
Conditions: BODIPY lipid droplet fluorescence, 18-24 h; for cell number change: measured here: cell count max response, cells fed with added oleic acid
Method in brief: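 Drosophila S3 cells loaded with oleic acid (400 uM, as added) and compounds at several concentrations; lipid droplets imaged by 488-nm laser-scanning cytometry, 500–530 nm intensity and object ratio to cell channel. Percent activity normalized to 20 uM Triacsin C.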

[1] = measured here: lipid fluorescence (Fed channel) AC50, cells fed with added oleic acid
[2] = measured here: cell number channel AC50, cells fed with added oleic acid

| SMILES | cell number change [%] | AC50 [1] | AC50 [2] |
| --- | --- | --- | --- |
| O=C(c1cccs1)N1CCN(C2CCCCC2)CC1 | 9.42 | 0.291 µM [falling, partial curve, poor fit] |  |
| CCCCN(CC)Cc1ccc(CNC(=O)Nc2ccc(OCC)cc2)o1 | 44.3 | 18.4 µM [rising, single point] | 16.4 µM [rising, single point] |
| O=C(Nc1cccc(S(=O)(=O)Nc2ccc(Cl)cc2)c1)c1ccc2c(c1)OCCO2 | -13.6 | 8.2 µM [rising, partial curve] |  |
| COc1ccc(N2C(=NC(=O)c3ccc(Br)cc3)SC3CS(=O)(=O)CC32)cc1 (stereo not given) | -32 |  | 18.4 µM [falling, single point] |
| Cc1ccc(C(=O)c2cc3ccccc3o2)cc1[N+](=O)[O-] | -57.8 |  |  |
| O=C(NCc1ccccc1)c1cccc(COc2ccccc2Cl)c1 | -6.42 | 29.1 µM [falling, single point] |  |
| Cc1ccc(-c2ccc(CCC(=O)O)n2NC(=O)c2cccs2)cc1 | -48.5 | 5.17 µM [falling, single point] | 0.00461 µM [falling, full curve, poor fit] |
| Cc1nn(CC(=O)N2CCN(c3ccccc3)CC2)c(=O)c2ccccc12 | 16.4 |  |  |
| CCOC(=O)C1CCCN(S(=O)(=O)c2c(C)noc2C)C1 (stereo not given) |  | 29.1 µM [rising, single point] |  |
| CCc1ccccc1NC(=O)CNC(=O)c1cc(C2CC2)nn1-c1ccccc1 | 12.6 | 0.58 µM [falling, single point] |  |
| COc1ccc(C(=O)COC(=O)CCNS(=O)(=O)c2ccccc2)cc1Br | -5.28 | 0.92 µM [falling, full curve] |  |
| Cc1ccc(S(=O)(=O)N2CCN(C(=O)CCOc3ccccc3C)CC2)cc1C | 108 |  | 18.4 µM [rising, partial curve] |
| C=CCn1c(Cc2ccccc2)n[nH]c1=S | 6.97 |  |  |
| Cc1noc2ncnc(N3CCN(c4ccc(F)cc4)CC3)c12 | 17.8 | 16.4 µM [rising, single point] |  |
| Cc1c(NC(=O)C23CC4CC(CC(C4)C2)C3)c(=O)n(-c2ccccc2)n1C | -15.7 | 29.1 µM [falling, single point] |  |
| Cc1cc(F)ccc1Oc1cc(NN2CCCCC2)c([N+](=O)[O-])cc1[N+](=O)[O-] | 6.8 | 29.1 µM [rising, single point] |  |
| CC(C)(C)C(=O)NC(c1ccccc1)c1c(O)ccc2ccccc12 (stereo not given) | -61.4 | 23.1 µM [falling, partial curve] | 20.6 µM [falling, single point] |
| COC(=O)[C@@H](Cc1ccccc1)NC(=O)NCCc1ccc(OC)c(OC)c1 | 40.8 |  | 16.4 µM [rising, partial curve] |
| CC(=O)NN1C(=O)c2ccc3c4c(ccc(c24)C1=O)C(=O)N(NC(C)=O)C3=O | -47.5 | 2.59 µM [falling, partial curve, poor fit] | 8.2 µM [falling, partial curve] |
| CSCCOC(=O)C1=C(C)Nc2ccc(C)cc2S1 | 0.483 | 6.51 µM [rising, single point] | 5.8 µM [rising, single point] |
| COc1ccc(C)cc1NC(=O)C(C)N1CCOCC1 (stereo not given) | 6.63 |  |  |

Not a retest: four of the compounds above.

| SMILES | cell number change [%] | AC50 [1] | AC50 [2] |
| --- | --- | --- | --- |
| Cc1nn(CC(=O)N2CCN(c3ccccc3)CC2)c(=O)c2ccccc12 | 16.4 |  |  |
| CCOC(=O)C1CCCN(S(=O)(=O)c2c(C)noc2C)C1 (stereo not given) |  | 29.1 µM [rising, single point] |  |
| CCc1ccccc1NC(=O)CNC(=O)c1cc(C2CC2)nn1-c1ccccc1 | 12.6 | 0.58 µM [falling, single point] |  |
| COc1ccc(C(=O)COC(=O)CCNS(=O)(=O)c2ccccc2)cc1Br | -5.28 | 0.92 µM [falling, full curve] |  |

(listing goes on)

| SMILES | cell number change [%] | AC50 [1] | AC50 [2] |
| --- | --- | --- | --- |
| CCc1c(C(C)O)oc2ccc3c(C)cc(=O)oc3c12 (stereo not given) | -9.32 | 29.1 µM [falling, single point] |  |
| CCCCNC(=S)NNC(=O)c1cc(C)on1 | -2.09 |  |  |
| COc1ccc(NC(=O)N2CCC(Cc3ccccc3)CC2)cc1 | -4.46 | 1.46 µM [falling, full curve] |  |
| O=C(O)CCSc1ccccn1 | 11 | 0.411 µM [rising, single point] |  |
| O=C(Nc1ccc2nsnc2c1)c1ccc2c(c1)OCO2 | -3.59 | 7.31 µM [rising, partial curve, poor fit] |  |
| CC(=O)N1CCCc2cc(S(=O)(=O)N3CCCC(C(=O)Nc4ccc(C)cc4C)C3)ccc21 (stereo not given) | 36.3 | 16.4 µM [rising, single point] | 20.6 µM [rising, single point] |
| CC1(C)Cc2cccc(OCC(=O)NC3CC3)c2O1 | -0.0966 |  |  |
| CC12CC(NC(=O)N1c1cccc(C(=O)Nc3ncn[nH]3)c1)c1ccccc1O2 (stereo not given) | 2.81 | 29.1 µM [falling, single point] |  |
| CCCC(NCC(=O)Nc1ccccc1C(=O)NC1CC1)c1ccccc1 (stereo not given) | 27.7 |  | 0.92 µM [rising, partial curve] |
| Cc1ccc(S(=O)(=O)NC2CCCc3ccccc32)cc1C (stereo not given) | 52.6 | 0.0058 µM [rising, full curve, poor fit] | 29.1 µM [rising, single point] |
| COc1cc(C)c(Cl)cc1S(=O)(=O)NCc1ccccn1 | 17.2 | 0.58 µM [falling, single point] |  |
| COc1ccc(-c2cc(C(F)(F)F)nc(N3CCN(C)CC3)n2)cc1 | -34.5 |  |  |
| Cc1ccc(NS(=O)(=O)c2c(C(=O)N3CCCCCC3)c(C)n(C)c2C)c(Cl)c1 | 12.2 |  |  |
| CCN(CC)CP(=O)(c1ccccc1)c1ccccc1 | 12.4 |  |  |
| CCCCCO | 6.78 | 25.9 µM [rising, single point] |  |
| Cc1cc(C)n(-c2c(F)c(F)c(COC(=O)c3ccccc3)c(F)c2F)n1 |  |  | 5.17 µM [falling, single point] |
| COc1ccc(C(CC(=O)O)NC(=O)C2CCCCC2)cc1 (stereo not given) | -7.03 |  |  |
| Clc1ccc(OCc2nnc3n2N=C(c2ccc4c(c2)OCCO4)CS3)c(Cl)c1 |  | 3.26 µM [rising, partial curve] | 0.0651 µM [rising, full curve, poor fit] |
| CN(C(=O)c1ccccc1C(=O)OCC(=O)c1ccc(Br)cc1)c1ccccc1 | 32.7 |  | 32.6 µM [rising, single point] |
| Cc1ccc(-c2nn(-c3ccc(F)cc3)cc2C(=O)NCC(c2cccs2)N2CCOCC2)cc1 (stereo not given) | -9.64 |  |  |
| COc1ccc(-n2nc3c(c2NC(=O)COc2ccccc2)CS(=O)(=O)C3)cc1 | 17.3 |  |  |

| SMILES | cell number change [%] | AC50 [1] | AC50 [2] |
| --- | --- | --- | --- |
| CCCCOc1ccc(NC(=O)CSCC(=O)OCC)cc1 | -5.89 | 6.51 µM [falling, single point] |  |
| O=C(COC(=O)C12CC3CC(CC(C3)C1)C2)Nc1ccc([N+](=O)[O-])cc1Cl | 3.23 | 13 µM [falling, partial curve, poor fit] |  |
| CCOCCCn1c(=S)[nH]c2cc(C(=O)N3CCOCC3)ccc2c1=O | -12.7 | 32.6 µM [falling, single point] |  |
| Cc1ccccc1NCC(=O)Nc1cc(S(=O)(=O)N2CCCCC2)ccc1C | 12.8 | 3.66 µM [falling, partial curve] |  |
| O=C(c1ccc(=O)n(Cc2ccc(Cl)c(Cl)c2)c1)N1CCOCC1 | 5.17 |  |  |
| Cc1nnc(NC(=O)CSc2nnc(C(C)NC(=O)c3ccccc3F)n2C)s1 (stereo not given) | -5.13 | 29.1 µM [rising, single point] |  |
| N#Cc1nc(Cc2ccccc2)oc1N1CCN(c2cccc(Cl)c2)CC1 | -22.6 | 18.4 µM [rising, single point] | 3.26 µM [falling, single point] |
| Cc1scc(C(=O)NNC(=S)NC(C)c2ccccc2)c1C (stereo not given) | 16.3 | 29.1 µM [rising, single point] |  |
| COc1ccc(C(=O)NC(=S)NCc2ccc(-c3nc4ccccc4o3)cc2)cc1OC | -52.4 |  | 20.6 µM [falling, single point] |
| Cn1c(SCCC#N)nnc1-c1ccccc1F |  |  | 0.103 µM [falling, full curve, poor fit] |
| CSc1ncc(Cl)c(C(=O)Nc2ccc(S(=O)(=O)Nc3nccc(C)n3)cc2)n1 | 27.6 | 0.00461 µM [falling, full curve, poor fit] | 0.731 µM [rising, full curve, poor fit] |
| O=C(NCC1CCCO1)c1ccc(NC(=O)C2C3C=CC(C3)C2C(=O)O)cc1 (stereo not given) | 17.8 |  |  |
| CCCN(CC(=O)Nc1ccccc1C)C(=O)COc1ccc2c(c1)CCC2 | 38.2 | 25.9 µM [rising, partial curve] | 29.1 µM [rising, single point] |
| O=C(CSc1nncn1-c1cccnc1)Nc1ccccc1C(F)(F)F | 9.57 | 29.1 µM [rising, single point] |  |
| Cc1ccc(CCNC(=O)C2CCC(=O)N(Cc3cccc(F)c3)C2)cc1 (stereo not given) | 0.99 | 29.1 µM [rising, single point] |  |
| Fc1cc(F)cc(NC(=S)N2CCN(c3ncccn3)CC2)c1 | 46.3 |  | 6.51 µM [falling, partial curve, poor fit] |
| CCc1nnc(NC(=O)CN2C(=O)NC3(CC(C)CC(C)(C)C3)C2=O)s1 (stereo not given) | -46.1 |  | 23.1 µM [falling, single point] |
| COc1ccc(C)cc1S(=O)(=O)N1CCN(C(=O)c2ncoc2-c2cccc(F)c2)CC1 | 30.3 |  |  |
| Nc1nc2c(s1)CCc1c-2cnn1-c1ccccc1 | -84.1 | 23.1 µM [falling, single point] | 20.6 µM [falling, single point] |
| CCCCN(CCCC)c1nc(-c2ccncc2)nc2ccccc12 | 18.8 | 6.51 µM [rising, partial curve] |  |
| COc1c(Cl)cnn(-c2ccc(Cl)c(Cl)c2)c1=O | 30.9 | 4.11 µM [rising, partial curve] | 0.517 µM [rising, full curve, poor fit] |
